Data as given in PubChem BioAssay AID1259405 (NCATS, 2018)
This is one part, drawn at random, of about 50,000 reagents tested. Over the whole deposit, about 4,000 (8%) were called active. 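Mouse siRNA library applied to hamster cells; one well for each siRNA.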 Unmarked entries are inactive. The numbers tell different reagents against one gene apart.

Assay: 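Knock-downs that lift recombinant protein yield in hamster ovary cells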 (primary screen)
System: Chinese hamster CHO-K1 ovary cells with stable secreted eGFP expression
Reagent: single siRNA against mouse genes, 0.8 pmol siRNA per well (2 µl of 400 nM stock)
Time to read-out: 3 days
Measured: 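Percent of the per-plate non-targeting control median for intracellular GFP per well by laser scanning cytometry and for cell viability by ATP luminescence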
Scale: GFP, % of control: higher = more GFP per well, higher productivity; viability (ATP), % of control: higher = more viable cells (more ATP)
Hit rule: 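Called active when intracellular GFP, relative to negative control, is at or above 120%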

gene | reagent | GFP, % of control | viability (ATP), % of control
Ep300 | 1 | 46.1 | 33
Ep300 | 2 | 309 (active) | 53.1
Ep300 | 3 | 22.3 | 36.9
Glyctk | 1 | 110 | 89.2
Syn2 | 1 | 63.8 | 48.6
Syn2 | 2 | 67 | 59.5
Syn2 | 3 | 102 | 53.2
Mrpl4 | 1 | 115 | 105
Mrpl4 | 2 | 105 | 66.7
Mrpl4 | 3 | 50 | 54.6
Castor2 | 1 | 57.4 | 75.8
Castor2 | 2 | 36.1 | 24.4
Castor2 | 3 | 34.7 | 53.1
Tceal8 | 1 | 126 (active) | 115
Tceal8 | 2 | 67.3 | 69.9
Tceal8 | 3 | 58.7 | 96.7
Alg5 | 1 | 72 | 98.3
Alg5 | 2 | 38.4 | 95.2
Alg5 | 3 | 80.6 | 129
Zeb2 | 1 | 79.8 | 95
Zeb2 | 2 | 70.9 | 51
Zeb2 | 3 | 88.4 | 94.3
Zfp358 | 1 | 149 (active) | 127
Zfp358 | 2 | 67.2 | 67.9
Zfp358 | 3 | 107 | 124
Zfp513 | 1 | 55.1 | 77.7
Zfp513 | 2 | 80.6 | 97.5
Zfp513 | 3 | 83.4 | 91.5
Rbms3 | 1 | 20.7 | 26.2
Rbms3 | 2 | 135 (active) | 96.7
Rbms3 | 3 | 61.6 | 52.7
Mob1a | 1 | 96.2 | 78
Mob1a | 2 | 79.4 | 68.2
Tlr2 | 1 | 75 | 69.9
Tlr2 | 2 | 65.4 | 54.8
Tlr2 | 3 | 91.2 | 61
Zfp114 | 1 | 90.4 | 87.2
Zfp114 | 2 | 68.5 | 74.6
Zfp114 | 3 | 51.6 | 54.5
Vmn1r84 | 1 | 49.6 | 57.5
Vmn1r84 | 2 | 72.7 | 79.5
Vmn1r84 | 3 | 42.9 | 32.6
Slco2a1 | 1 | 70.4 | 87.5
Slco2a1 | 2 | 111 | 85.4
Slco2a1 | 3 | 68.3 | 104
Raly | 1 | 105 | 78.3
Raly | 2 | 88.7 | 82.1
Raly | 3 | 57.2 | 66.6
Iars1 | 1 | 70 | 80.8
Iars1 | 2 | 54.1 | 77.9
Lpgat1 | 1 | 134 (active) | 81.1
Lpgat1 | 2 | 103 | 85.5
Lpgat1 | 3 | 40.7 | 64.6
Tnp2 | 1 | 131 (active) | 66.4
Tnp2 | 2 | 82.5 | 89.3
Arg2 | 1 | 84.3 | 47.3
Arg2 | 2 | 124 (active) | 103
Arg2 | 3 | 102 | 110
